Data taken from ChEMBL document CHEMBL3988442, “University of Dundee, Small-Polar-MMV Screening Library” (2021).

Amino acid sequences for entries named in this document (tags omitted).
UniProt E9BF75, entry or part of it: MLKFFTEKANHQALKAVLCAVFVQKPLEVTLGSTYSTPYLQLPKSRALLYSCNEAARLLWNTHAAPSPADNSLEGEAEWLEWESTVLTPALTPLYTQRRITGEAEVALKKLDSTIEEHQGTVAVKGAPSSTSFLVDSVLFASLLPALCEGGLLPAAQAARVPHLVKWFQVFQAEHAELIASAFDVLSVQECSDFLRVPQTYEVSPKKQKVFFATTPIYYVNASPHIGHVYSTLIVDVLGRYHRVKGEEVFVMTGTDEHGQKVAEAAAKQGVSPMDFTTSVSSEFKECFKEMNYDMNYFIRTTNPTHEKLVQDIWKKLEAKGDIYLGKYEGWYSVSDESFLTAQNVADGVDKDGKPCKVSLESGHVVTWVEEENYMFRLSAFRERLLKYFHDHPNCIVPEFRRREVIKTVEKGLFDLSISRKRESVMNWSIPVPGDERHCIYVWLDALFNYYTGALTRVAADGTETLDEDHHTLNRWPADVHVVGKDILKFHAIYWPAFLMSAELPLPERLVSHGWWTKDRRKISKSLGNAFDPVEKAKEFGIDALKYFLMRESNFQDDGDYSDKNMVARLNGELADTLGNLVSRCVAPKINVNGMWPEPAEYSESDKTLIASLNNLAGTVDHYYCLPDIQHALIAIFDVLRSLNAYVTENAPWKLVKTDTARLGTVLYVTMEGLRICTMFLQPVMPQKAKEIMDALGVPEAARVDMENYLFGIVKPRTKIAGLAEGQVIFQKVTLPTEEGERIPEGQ

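Methionyl-tRNA synthetase (putative), Leishmania donovani (UniProt E9BF75). Primary screen of methionyl-tRNA synthetase; the read-out is not stated. The test concentration is not given. The values are filed as inhibition. Of about 68,000 compounds tested this way, about 24 (0.035%) reached 50% or more in at least one test.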

All values are in %. How 0% and 100% were set is not recorded. Most values in the screen are low, and negative values occur. This is an unselected part of the compounds tested.

| structure | Inhibition |
|---|---|
| `CCN(CCS(=O)(=O)CC)CC1CCCO1` (stereo not drawn) | 2.094 |
| `CCN1CC(C(=O)N2CCC(Oc3ccccc3C)CC2)CC1=O` (stereo not drawn) | 15.5 |
| `Cc1ccc(OCC(C)NS(=O)(=O)Cc2ccon2)cc1` (stereo not drawn) | 17.12 |
| `Cc1ccsc1C(=O)N1C[C@@H]2CN(Cc3ccoc3)CCO[C@@H]2C1` | 11.78 |
| `O=C(Cc1noc2ccccc12)N1CCCC1c1noc(C2CC2)n1` (stereo not drawn) | 3.922 |
| `COCCc1ncc(CNC2(c3ccc(Cl)cc3)CC2)cn1` | 18.01 |
| `CCc1cnc(C)nc1NCCNc1nc(C)cc(=O)[nH]1` | 6.265 |
| `COCCN1CCCC(Cc2cnc(-c3c(C)nn(C)c3C)cn2)C1` (stereo not drawn) | 20.25 |
| `CCc1ncc(CN(C)C(=O)Nc2cccnc2N2CCCC2)s1` | 14.96 |
| `Cc1nc[nH]c1CN1CCOC(CCNC(=O)c2ccsc2)C1` (stereo not drawn) | 12.63 |
| `CCOCc1ncn2c1CN(S(=O)(=O)c1cccc(C)c1)CC2` | 3.226 |
| `CC(=O)Nc1ccc(Cl)c(C(=O)N(C)C(C)c2ccon2)c1` (stereo not drawn) | 1.282 |
| `CN1C[C@@H](F)[C@@H](OCc2nc3ccccc3[nH]2)C1` | 12.03 |
| `O=C(c1cscn1)N1CCc2ncc(CN3CCOCC3)n2CC1` | 5.473 |
| `Cn1ccc(C(=O)N2CCCC(CNS(C)(=O)=O)C2)cc1=O` (stereo not drawn) | 12.53 |
| `CCn1ccc(NC(=O)CCc2c(C)nn(C)c2C)n1` | 6.907 |
| `CCOCc1nc2c(c(N3CCCn4nc(C)cc4C3)n1)CCNCC2` | 1.523 |
| `CCc1noc(C)c1-c1nc(Cc2cccs2)nn1C1CCN(C)CC1` | 17.37 |
| `Cc1nc[nH]c1C(=O)N1CC[C@@H](NC(=O)c2ccccn2)[C@H](O)C1` | 4.469 |
| `CC(C)N1CCC(C(=O)N2CCCN(c3ccccc3)CC2)CC1` | 16.45 |
| `COCCN1CCC2(CC1)CN(CCn1cccn1)C(=O)CO2` | 3.833 |
| `CCOc1ncccc1NC(=O)NC1CCCN(S(C)(=O)=O)C1` (stereo not drawn) | 18.03 |
| `CN(C)C(=O)CN1C[C@@H]2CC[C@H](C1)N(Cc1c(F)cccc1Cl)C2` | 17.58 |
| `O=C(Cc1csc(-c2ccccc2)n1)N[C@@H](C(=O)O)c1ccccc1` | 8 |
| `O=C(NCCC(=O)N1CCCC1)C(OC1CCCC1)c1ccccc1` (stereo not drawn) | 2.903 |
| `CC(NC(=O)NCc1cscn1)c1ccc(N2CCOCC2)cc1` (stereo not drawn) | 18.63 |
| `Cc1nc(C2CCCN2C(=O)c2ccc3c(c2)nc(C)n3C)no1` (stereo not drawn) | 7.803 |
| `CC1CN(C(=O)c2ccc(C(N)=O)cc2)c2ccc(F)cc2O1` (stereo not drawn) | 20.41 |
| `O=C1CC[C@]2(CC[C@@H](NCc3cccnc3)CC2)N1Cc1ccccc1` | 19.05 |
| `O=C(c1cscn1)N1CCO[C@H]2[C@@H](Oc3ccccn3)CC[C@@H]21` | 12.64 |
| `Cc1ccc2nc(C3CCCN3Cc3csc(C)n3)[nH]c2c1` (stereo not drawn) | 11.17 |
| `Cc1cnn(CCNCc2csc(-c3ccco3)n2)c1` | 25.68 |
| `CN(CCc1ccccc1)c1cnn(Cc2ccccn2)c(=O)c1` | 8.533 |
| `Cc1ccc(N2CCN(C3CCc4ccccc4C3)CC2)nn1` (stereo not drawn) | 11.17 |
| `Cc1c(Cl)cc(C(=O)N(CCO)Cc2nccn2C)cc1Cl` | 7.467 |
| `FC(F)(F)C1CCCn2c(CNCc3ccsc3)nnc21` (stereo not drawn) | 7.805 |
| `c1cncc(COC[C@@H]2CCC[C@@]23CNCCO3)c1` | 6.202 |
| `Cn1cc(C(=O)N2CC[C@@H]3[C@@H]2CCN3c2ncc(F)cn2)cn1` | 8.901 |
| `Cc1nc(C2CCCN2CC(=O)NCCOc2ccccc2)no1` (stereo not drawn) | 5.102 |
| `COc1ncccc1C(=O)N1CCn2c(COCC3CC3)cnc2C1C` (stereo not drawn) | 9.013 |
| `O=C(COCc1ccccc1)Nc1ccccn1` | 7.781 |
| `Cc1ccc(CN2CC3(CCN(S(=O)(=O)c4ccccc4)C3)C2)o1` | 7.222 |
| `CCN(C(=O)c1ccc2nnc(C3CCN(CCOC)C3)n2c1)C(C)C` (stereo not drawn) | 6.162 |
| `COc1ccc(CN2C[C@@H](O)[C@](O)(CNC(=O)c3ccccn3)C2)cc1` | 9.951 |
| `COCc1nnc2n1CCN(Cc1ccoc1)C2` | 7.407 |
| `CN1CCc2c(C#N)c(NCc3ccco3)n3cnnc3c2C1` | 11.27 |
| `O=C1O[C@@H]2CN(Cc3cccc(O)c3)C[C@@H]2N1CCCN1CCOCC1` | 16.36 |
| `Cn1cnc(-c2nc(C(=O)NCCN3CCOCC3)c3ccccn23)c1` | 19.05 |
| `O=C(NCC1(O)CCC1)c1c(O)cc(F)cc1F` | 5.497 |
| `Cc1cnc(CCNC(=O)C2CN(C(=O)Cc3ccc(F)cc3)C2)s1` | 5.901 |
| `CC(=O)Nc1nc(C(=O)NCc2ccc(N3CCOCC3)nc2)cs1` | 11.17 |
| `COc1ccc(CNC(C)c2cccc(Br)c2)c(OC)c1OC` (stereo not drawn) | -3.714 |
| `O=C(NCCC(O)c1ccco1)c1ccco1` (stereo not drawn) | 5.797 |
| `Cc1noc(C)c1-c1cccc(CC2CCN(C(=O)CN)C2)n1` (stereo not drawn) | 14.12 |
| `Cc1nccn1-c1cccc(N2CCC(OCC3CCCCO3)CC2)n1` (stereo not drawn) | 6.443 |
| `Cn1cccc1C(=O)N1CCC2(CC1)CC(N1CCOCC1)C2` | 9.936 |
| `CCCn1[nH]cc/c1=N\C(=O)CN1CCCC1c1c(C)nn(C)c1C` (stereo not drawn) | 7.19 |
| `Cc1csc(N2CCCN(C(=O)c3cnns3)CC2)n1` | 2.797 |
| `Cc1cccc(N2CCC3(CCCN(C(=O)Cc4cccnc4)C3)C2)n1` (stereo not drawn) | -1.875 |
| `CCNc1ncc(C(=O)NCc2csc(-c3cnccn3)n2)cn1` | 19.64 |
| `O=C(CC1CCC2(CC1)CCN(Cc1ccncc1)CC2)N1CCCC1` | 7.107 |
| `Cc1sc2nc(CCN)nc(N(CCN(C)C)CC3CCCO3)c2c1C` (stereo not drawn) | 3.125 |
| `Cc1cc(O)nc(C2CN(CCC(F)(F)F)CCO2)n1` (stereo not drawn) | 13.55 |
| `CC(NCc1cccnc1)c1cc2c(cc1Br)OCCO2` (stereo not drawn) | 14.34 |
| `CNc1nc2c(c(C(=O)N3CCCC3)n1)CN(C(=O)C1CCCC1)CC2` | 9.202 |
| `Cc1ccc(C(=O)N2CCOC3(CCCC3)C2)c(=O)[nH]1` | 14.97 |
| `COc1cccc(OCC2CCCN(C(=O)c3ccc(N)nc3)C2)c1` (stereo not drawn) | 18.16 |
| `O=C(c1ncccn1)N1CCC[C@]2(C[C@@H](Oc3ncccc3F)CO2)C1` | 8.75 |
| `CC(C)n1nnc(CC(=O)NCC2(c3cccc(F)c3)CCCC2)n1` | 4.658 |
| `CC(Nc1ncnc2c1NC(=O)CN2)c1ccccn1` (stereo not drawn) | 15.01 |
| `CCC(=O)N1CC[C@H]2[C@H](C[C@@H](CN3CCCC3)N2c2nccs2)C1` | 17.58 |
| `CCOc1ccc(C(C)NC(=O)N2CCC(C(N)=O)CC2)cc1OC` (stereo not drawn) | 12.68 |

For reference, 4 entries once more:

structure	Inhibition
O=C(c1cscn1)N1CCO[C@H]2[C@@H](Oc3ccccn3)CC[C@@H]21	12.64
O=C(Cc1csc(-c2ccccc2)n1)N[C@@H](C(=O)O)c1ccccc1	8
CCCn1[nH]cc/c1=N\C(=O)CN1CCCC1c1c(C)nn(C)c1C (stereo not drawn)	7.19
O=C(Cc1noc2ccccc12)N1CCCC1c1noc(C2CC2)n1 (stereo not drawn)	3.922